Results taken from the supplement of paper PMC12823440, “Inhibitors supercharge kinase turnover through native proteolytic circuits” (Nature, 2025).
This is one part of the list. Hit calls seldom repeat between salt and free forms of one compound.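 In K562 cells expressing nanoluciferase-fused kinases, luminescence was recorded at 4 h intervals between 2 and 18 h, normalized as percent of control with DMSO at 100% and a positive control at 0%. A significant (2 sigma) signal drop marks a time point as decreased. The authors' rule for a hit is not shown and takes in more than the number of time points.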

Sequences of proteins named here, by UniProt entry; tags and fusion partners are left off. A change or cut given only in a name is not applied to a line headed by its entry.
UniProt Q9Y616: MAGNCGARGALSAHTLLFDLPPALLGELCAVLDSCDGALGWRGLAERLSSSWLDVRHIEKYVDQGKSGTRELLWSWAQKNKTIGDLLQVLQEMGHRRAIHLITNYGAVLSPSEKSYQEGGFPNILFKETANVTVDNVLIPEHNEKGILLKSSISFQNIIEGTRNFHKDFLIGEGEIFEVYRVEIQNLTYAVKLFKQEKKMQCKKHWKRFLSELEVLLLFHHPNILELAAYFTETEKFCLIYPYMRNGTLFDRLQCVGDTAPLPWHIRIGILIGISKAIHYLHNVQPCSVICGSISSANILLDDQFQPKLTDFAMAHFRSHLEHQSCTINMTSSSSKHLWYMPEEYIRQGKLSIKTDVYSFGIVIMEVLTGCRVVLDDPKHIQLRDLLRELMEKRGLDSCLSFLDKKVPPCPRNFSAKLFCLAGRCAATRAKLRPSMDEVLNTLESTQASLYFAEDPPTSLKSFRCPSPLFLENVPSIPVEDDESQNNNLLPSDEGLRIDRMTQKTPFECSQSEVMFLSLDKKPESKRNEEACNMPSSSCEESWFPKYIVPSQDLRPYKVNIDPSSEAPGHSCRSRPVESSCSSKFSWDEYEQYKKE
UniProt P23458: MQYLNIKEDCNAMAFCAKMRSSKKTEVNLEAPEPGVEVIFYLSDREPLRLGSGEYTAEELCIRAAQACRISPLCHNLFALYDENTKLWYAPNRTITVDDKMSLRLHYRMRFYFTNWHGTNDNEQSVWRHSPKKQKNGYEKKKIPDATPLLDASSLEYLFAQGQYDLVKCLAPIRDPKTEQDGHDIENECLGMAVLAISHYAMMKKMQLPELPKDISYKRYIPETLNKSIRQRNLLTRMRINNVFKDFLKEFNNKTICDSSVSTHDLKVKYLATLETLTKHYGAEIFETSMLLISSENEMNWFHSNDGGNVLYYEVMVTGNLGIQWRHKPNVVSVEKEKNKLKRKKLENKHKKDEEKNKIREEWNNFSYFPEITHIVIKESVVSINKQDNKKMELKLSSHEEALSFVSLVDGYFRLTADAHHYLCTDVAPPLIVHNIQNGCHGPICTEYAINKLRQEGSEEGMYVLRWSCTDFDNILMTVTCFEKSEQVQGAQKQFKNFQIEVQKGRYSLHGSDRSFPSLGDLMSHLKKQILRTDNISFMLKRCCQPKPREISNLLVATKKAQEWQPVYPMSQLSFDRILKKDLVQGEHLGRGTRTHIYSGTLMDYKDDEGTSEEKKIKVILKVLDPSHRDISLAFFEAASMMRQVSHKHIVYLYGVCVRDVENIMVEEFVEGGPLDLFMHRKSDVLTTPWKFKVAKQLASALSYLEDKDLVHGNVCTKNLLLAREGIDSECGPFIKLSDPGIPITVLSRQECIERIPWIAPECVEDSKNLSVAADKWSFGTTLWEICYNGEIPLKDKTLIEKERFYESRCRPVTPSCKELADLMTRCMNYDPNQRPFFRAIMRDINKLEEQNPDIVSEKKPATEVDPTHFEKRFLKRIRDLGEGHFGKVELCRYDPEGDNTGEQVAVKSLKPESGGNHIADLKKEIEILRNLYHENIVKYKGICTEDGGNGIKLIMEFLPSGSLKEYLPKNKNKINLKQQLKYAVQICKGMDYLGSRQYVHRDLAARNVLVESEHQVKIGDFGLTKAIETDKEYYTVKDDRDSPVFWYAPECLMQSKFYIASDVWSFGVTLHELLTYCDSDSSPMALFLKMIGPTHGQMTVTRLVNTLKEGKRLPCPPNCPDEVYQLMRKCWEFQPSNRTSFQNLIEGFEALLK
UniProt P06239: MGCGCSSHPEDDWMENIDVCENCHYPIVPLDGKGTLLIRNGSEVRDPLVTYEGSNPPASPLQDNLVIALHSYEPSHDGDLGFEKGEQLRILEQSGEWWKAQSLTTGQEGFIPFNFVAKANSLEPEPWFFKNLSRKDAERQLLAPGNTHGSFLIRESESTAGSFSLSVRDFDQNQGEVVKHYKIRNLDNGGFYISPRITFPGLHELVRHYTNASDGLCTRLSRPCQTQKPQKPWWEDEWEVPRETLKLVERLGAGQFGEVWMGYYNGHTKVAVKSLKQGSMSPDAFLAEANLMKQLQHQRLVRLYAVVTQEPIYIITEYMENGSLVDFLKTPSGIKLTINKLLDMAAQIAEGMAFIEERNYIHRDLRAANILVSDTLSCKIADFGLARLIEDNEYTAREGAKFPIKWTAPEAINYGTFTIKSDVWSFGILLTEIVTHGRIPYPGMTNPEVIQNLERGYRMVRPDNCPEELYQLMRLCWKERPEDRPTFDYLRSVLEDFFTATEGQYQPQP
UniProt P53667: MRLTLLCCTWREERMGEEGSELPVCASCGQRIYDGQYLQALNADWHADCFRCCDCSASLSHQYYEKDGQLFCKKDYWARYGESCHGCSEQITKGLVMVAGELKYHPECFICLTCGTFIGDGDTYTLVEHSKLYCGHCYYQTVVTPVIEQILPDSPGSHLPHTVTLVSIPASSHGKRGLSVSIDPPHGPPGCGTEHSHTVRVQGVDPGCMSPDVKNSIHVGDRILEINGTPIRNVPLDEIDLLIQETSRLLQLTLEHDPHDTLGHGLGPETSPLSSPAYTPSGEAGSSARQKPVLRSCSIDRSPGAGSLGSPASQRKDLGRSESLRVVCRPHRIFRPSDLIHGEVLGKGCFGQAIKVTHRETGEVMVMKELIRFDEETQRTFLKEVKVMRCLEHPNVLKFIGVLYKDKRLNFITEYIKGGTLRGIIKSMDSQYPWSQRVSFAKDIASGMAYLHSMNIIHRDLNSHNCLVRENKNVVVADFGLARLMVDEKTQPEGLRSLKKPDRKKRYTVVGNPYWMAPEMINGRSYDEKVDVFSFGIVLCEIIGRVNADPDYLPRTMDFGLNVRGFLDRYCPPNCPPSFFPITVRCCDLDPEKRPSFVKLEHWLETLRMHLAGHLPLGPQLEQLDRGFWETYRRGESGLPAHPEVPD
UniProt P53671: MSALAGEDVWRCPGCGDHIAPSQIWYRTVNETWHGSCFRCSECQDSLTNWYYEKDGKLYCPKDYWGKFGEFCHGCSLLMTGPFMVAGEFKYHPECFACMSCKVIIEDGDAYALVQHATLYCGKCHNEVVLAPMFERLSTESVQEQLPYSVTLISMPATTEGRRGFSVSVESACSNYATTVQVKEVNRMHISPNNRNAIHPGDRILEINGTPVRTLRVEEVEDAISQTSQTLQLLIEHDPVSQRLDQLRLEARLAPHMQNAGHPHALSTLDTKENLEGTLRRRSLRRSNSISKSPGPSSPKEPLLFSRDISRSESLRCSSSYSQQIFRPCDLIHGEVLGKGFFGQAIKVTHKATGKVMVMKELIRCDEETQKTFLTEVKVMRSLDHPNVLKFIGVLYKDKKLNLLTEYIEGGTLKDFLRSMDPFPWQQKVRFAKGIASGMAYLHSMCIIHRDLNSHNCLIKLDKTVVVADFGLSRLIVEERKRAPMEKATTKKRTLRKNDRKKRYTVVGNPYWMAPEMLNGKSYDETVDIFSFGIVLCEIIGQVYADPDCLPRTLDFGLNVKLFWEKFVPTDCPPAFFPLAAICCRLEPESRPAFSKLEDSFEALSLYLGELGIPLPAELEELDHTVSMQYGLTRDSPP
UniProt Q8IWU2: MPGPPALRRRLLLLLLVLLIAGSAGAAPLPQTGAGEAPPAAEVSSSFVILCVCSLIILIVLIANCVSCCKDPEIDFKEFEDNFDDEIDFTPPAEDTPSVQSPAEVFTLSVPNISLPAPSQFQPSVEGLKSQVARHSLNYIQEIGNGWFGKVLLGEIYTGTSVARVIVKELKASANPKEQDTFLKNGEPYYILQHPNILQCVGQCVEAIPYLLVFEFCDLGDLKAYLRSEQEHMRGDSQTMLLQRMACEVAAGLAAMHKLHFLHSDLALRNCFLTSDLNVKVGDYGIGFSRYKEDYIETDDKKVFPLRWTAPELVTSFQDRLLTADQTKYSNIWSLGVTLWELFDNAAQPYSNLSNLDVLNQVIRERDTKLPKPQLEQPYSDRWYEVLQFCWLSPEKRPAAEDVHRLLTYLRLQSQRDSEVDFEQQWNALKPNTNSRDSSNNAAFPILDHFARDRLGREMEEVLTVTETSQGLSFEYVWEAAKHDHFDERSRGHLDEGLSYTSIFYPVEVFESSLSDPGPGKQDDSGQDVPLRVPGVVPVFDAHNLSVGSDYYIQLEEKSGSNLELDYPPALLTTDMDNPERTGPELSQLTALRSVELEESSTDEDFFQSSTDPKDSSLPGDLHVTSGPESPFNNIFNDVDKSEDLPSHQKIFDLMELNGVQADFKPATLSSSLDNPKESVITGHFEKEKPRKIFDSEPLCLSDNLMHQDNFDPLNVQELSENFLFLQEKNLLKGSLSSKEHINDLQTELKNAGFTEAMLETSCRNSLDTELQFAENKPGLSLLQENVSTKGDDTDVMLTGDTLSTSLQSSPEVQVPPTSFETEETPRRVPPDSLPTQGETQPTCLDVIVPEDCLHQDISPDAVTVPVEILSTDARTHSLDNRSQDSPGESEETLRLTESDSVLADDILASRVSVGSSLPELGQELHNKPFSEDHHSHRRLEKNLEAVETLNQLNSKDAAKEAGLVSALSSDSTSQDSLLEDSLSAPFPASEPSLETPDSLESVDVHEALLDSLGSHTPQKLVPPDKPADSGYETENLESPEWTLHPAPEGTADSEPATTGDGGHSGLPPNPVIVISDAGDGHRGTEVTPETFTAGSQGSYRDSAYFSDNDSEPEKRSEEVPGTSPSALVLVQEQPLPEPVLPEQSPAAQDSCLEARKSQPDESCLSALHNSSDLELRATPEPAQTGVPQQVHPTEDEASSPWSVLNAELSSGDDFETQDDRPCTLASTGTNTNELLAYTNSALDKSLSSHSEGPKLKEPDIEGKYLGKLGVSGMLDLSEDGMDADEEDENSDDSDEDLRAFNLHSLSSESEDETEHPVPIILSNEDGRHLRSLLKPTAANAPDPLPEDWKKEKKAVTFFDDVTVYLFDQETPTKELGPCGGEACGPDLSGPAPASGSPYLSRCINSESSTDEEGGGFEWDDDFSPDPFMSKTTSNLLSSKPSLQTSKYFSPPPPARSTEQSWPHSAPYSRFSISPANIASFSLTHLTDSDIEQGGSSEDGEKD
UniProt P07948: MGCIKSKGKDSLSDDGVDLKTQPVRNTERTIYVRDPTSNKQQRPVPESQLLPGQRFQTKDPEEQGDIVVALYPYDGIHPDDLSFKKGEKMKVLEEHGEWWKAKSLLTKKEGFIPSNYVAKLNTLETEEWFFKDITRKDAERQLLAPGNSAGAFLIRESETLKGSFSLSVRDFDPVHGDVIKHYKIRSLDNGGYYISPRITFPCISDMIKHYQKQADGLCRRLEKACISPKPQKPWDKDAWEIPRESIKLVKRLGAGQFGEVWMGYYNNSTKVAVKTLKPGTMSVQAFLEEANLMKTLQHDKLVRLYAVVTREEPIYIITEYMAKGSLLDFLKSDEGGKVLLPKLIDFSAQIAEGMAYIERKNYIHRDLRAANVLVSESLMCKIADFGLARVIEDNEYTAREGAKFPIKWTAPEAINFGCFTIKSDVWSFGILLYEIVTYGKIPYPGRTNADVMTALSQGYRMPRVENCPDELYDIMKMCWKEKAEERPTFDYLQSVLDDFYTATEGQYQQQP
UniProt Q12851: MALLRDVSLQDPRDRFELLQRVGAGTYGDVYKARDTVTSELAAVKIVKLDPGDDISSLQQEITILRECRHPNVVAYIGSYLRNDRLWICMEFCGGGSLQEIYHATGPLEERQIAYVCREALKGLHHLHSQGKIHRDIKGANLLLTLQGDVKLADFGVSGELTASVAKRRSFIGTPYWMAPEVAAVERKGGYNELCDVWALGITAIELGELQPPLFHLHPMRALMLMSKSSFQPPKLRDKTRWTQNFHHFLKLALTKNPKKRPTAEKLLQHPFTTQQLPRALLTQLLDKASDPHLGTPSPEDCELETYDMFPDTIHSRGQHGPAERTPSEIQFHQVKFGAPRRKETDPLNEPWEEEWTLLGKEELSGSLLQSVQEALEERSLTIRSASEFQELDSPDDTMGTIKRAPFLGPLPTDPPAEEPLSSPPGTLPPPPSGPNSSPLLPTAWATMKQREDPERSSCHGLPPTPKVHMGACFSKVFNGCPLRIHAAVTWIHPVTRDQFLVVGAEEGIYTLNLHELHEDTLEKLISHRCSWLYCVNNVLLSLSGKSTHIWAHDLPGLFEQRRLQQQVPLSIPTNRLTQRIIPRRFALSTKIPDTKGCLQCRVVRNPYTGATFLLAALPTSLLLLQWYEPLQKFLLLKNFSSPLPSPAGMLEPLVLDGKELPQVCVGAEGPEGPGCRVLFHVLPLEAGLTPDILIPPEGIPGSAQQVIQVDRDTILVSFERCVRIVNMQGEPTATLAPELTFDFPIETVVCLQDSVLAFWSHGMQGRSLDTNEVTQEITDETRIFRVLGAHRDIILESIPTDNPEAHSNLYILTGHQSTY

What was measured:
Test in all cases: kinase-Nluc reporter destabilization hit call (1 = scored as downregulated) (binary); higher = compound decreases kinase abundance
Details in all cases: K562; 2-18 h
[1] = molecular target: IRAK3 (UniProt Q9Y616)
[2] = molecular target: JAK1 (UniProt P23458)
[3] = molecular target: LCK (UniProt P06239)
[4] = molecular target: LIMK1 (UniProt P53667)
[5] = molecular target: LIMK2 (UniProt P53671)
[6] = molecular target: LMTK2 (UniProt Q8IWU2)
[7] = molecular target: LYN (UniProt P07948)
[8] = molecular target: MAP2K1 (UniProt Q02750)
[9] = molecular target: MAP2K2 (UniProt P36507)
[10] = molecular target: MAP4K2 (UniProt Q12851)

Measured: kinase-Nluc reporter destabilization hit call

CNC(=O)c1cc2c(Oc3ccc(NC(=O)C4(C(=O)Nc5ccc(F)cc5)CC4)cc3)ccnc2cc1OC (2.5 µM)
inactive: [1] 0 | [2] 0 | [3] 0 | [4] 0 | [5] 0 | [6] 0 | [7] 0 | [8] 0 | [9] 0 | [10] 0

CC(C)n1c(=O)n(C)c2cnc3cc(F)c(-c4ccc(OCCCN5CCCCC5)nc4)cc3c21 (10 µM)
inactive: [1] 0 | [2] 0 | [3] 0 | [4] 0 | [5] 0 | [6] 0 | [7] 0 | [8] 0 | [9] 0 | [10] 0

Cn1cc(-c2cc(Oc3cc(F)c(NC(=O)C4(C(=O)Nc5ccccc5)CC4)cc3F)ccn2)cn1 (2.5 µM)
inactive: [1] 0 | [2] 0 | [3] 0 | [4] 0 | [5] 0 | [6] 0 | [7] 0 | [8] 0 | [9] 0 | [10] 0

Cn1c(=O)c2c(nc(S(C)(=O)=O)n2C)n(CC#Cc2cccc(O)c2)c1=O (2.5 µM)
inactive: [1] 0 | [2] 0 | [3] 0 | [4] 0 | [5] 0 | [6] 0 | [7] 0 | [8] 0 | [9] 0 | [10] 0

C=CC(=O)Nc1ccc(C(=O)Nc2[nH]nc3c2CN(C(=O)N[C@H](CN(C)C)c2ccccc2)C3(C)C)cc1 (10 µM)
inactive: [1] 0 | [2] 0 | [3] 0 | [4] 0 | [5] 0 | [6] 0 | [7] 0 | [8] 0 | [9] 0 | [10] 0

Cc1cccc(/C=N/Nc2cc(N3CCOCC3)n3nc(-c4ccncc4)cc3n2)c1 (10 µM)
active: [2] 1
inactive: [1] 0 | [3] 0 | [4] 0 | [5] 0 | [6] 0 | [7] 0 | [8] 0 | [9] 0 | [10] 0

O=C(NCCN1CCOCC1)Nc1nc2ccc(Sc3nnc4ccc(-c5ccc(F)cc5)nn34)cc2s1 (10 µM)
inactive: [1] 0 | [2] 0 | [3] 0 | [4] 0 | [5] 0 | [6] 0 | [7] 0 | [8] 0 | [9] 0 | [10] 0

C#Cc1cccc(Nc2ncnc3cc(OC)c(NC(=O)N4C[C@H]5CCN(C)[C@H]5C4)cc23)c1 [Theliatinib] (10 µM)
inactive: [1] 0 | [2] 0 | [3] 0 | [4] 0 | [5] 0 | [6] 0 | [7] 0 | [8] 0 | [9] 0 | [10] 0

Cc1cc(C)cc(NC(N)=Nc2ccccc2C(F)(F)F)c1 (10 µM)
inactive: [1] 0 | [2] 0 | [3] 0 | [4] 0 | [5] 0 | [6] 0 | [7] 0 | [8] 0 | [9] 0 | [10] 0

CC(C)(C)Cc1[nH]nc2c1[C@@](C)(c1ccccc1)C1=C(CC(C)(C)CC1=O)N2 (10 µM)
inactive: [1] 0 | [2] 0 | [3] 0 | [4] 0 | [5] 0 | [6] 0 | [7] 0 | [8] 0 | [9] 0 | [10] 0

Cc1cc([C@@H](C)Nc2ccccc2C(=O)O)c2nc(N3CCOCC3)cc(=O)n2c1 (10 µM)
inactive: [1] 0 | [2] 0 | [3] 0 | [4] 0 | [5] 0 | [6] 0 | [7] 0 | [8] 0 | [9] 0 | [10] 0

CCN1CCN(Cc2cnc(Nc3cc(-c4cc(F)c5nc(C)n(C(C)C)c5c4)c(F)cn3)nc2)CC1 (10 µM)
inactive: [1] 0 | [2] 0 | [3] 0 | [4] 0 | [5] 0 | [6] 0 | [7] 0 | [8] 0 | [9] 0 | [10] 0

Cc1nn(C)cc1-c1nc2c(N3CCN(Cc4ccc(Cl)cc4)CC3)c(Cl)cnc2[nH]1 (10 µM)
inactive: [1] 0 | [2] 0 | [3] 0 | [4] 0 | [5] 0 | [6] 0 | [7] 0 | [8] 0 | [9] 0 | [10] 0

CC(C)CCN1c2nc(Nc3cc(F)c(O)c(F)c3)ncc2N(C)C(=O)C1C (stereo not given) (2.5 µM)
inactive: [1] 0 | [2] 0 | [3] 0 | [4] 0 | [5] 0 | [6] 0 | [7] 0 | [8] 0 | [9] 0 | [10] 0

Cn1c(CNc2cccc(C(=O)NCc3ccccc3C(F)(F)F)c2)nnc1-c1ccncc1 (10 µM)
inactive: [1] 0 | [2] 0 | [3] 0 | [4] 0 | [5] 0 | [6] 0 | [7] 0 | [8] 0 | [9] 0 | [10] 0

Cc1cc(C(=O)NOCCO)c(Nc2ccc(I)cc2F)n(C)c1=O (10 µM)
inactive: [1] 0 | [2] 0 | [3] 0 | [4] 0 | [5] 0 | [6] 0 | [7] 0 | [8] 0 | [9] 0 | [10] 0

Nc1nc2c(nc(Br)n2[C@@H]2O[C@@H]3COP(=O)(O)O[C@H]3[C@H]2O)c(=O)[nH]1 [8-Bromo-cGMP (sodium)] (10 µM)
inactive: [1] 0 | [2] 0 | [3] 0 | [4] 0 | [5] 0 | [6] 0 | [7] 0 | [8] 0 | [9] 0 | [10] 0

NC1(C(=O)NCCCn2cc(-c3ccc(OC(F)(F)F)cc3)c3cc(CN4CCN(Cc5c(Cl)cccc5Cl)CC4)ccc32)CCNCC1 (2.5 µM)
inactive: [1] 0 | [2] 0 | [3] 0 | [4] 0 | [5] 0 | [6] 0 | [7] 0 | [8] 0 | [9] 0 | [10] 0

3 compounds from above, ordered by molar mass, rising:
Cn1c(CNc2cccc(C(=O)NCc3ccccc3C(F)(F)F)c2)nnc1-c1ccncc1 (10 µM)
inactive: [1] 0 | [2] 0 | [3] 0 | [4] 0 | [5] 0 | [6] 0 | [7] 0 | [8] 0 | [9] 0 | [10] 0

Cn1cc(-c2cc(Oc3cc(F)c(NC(=O)C4(C(=O)Nc5ccccc5)CC4)cc3F)ccn2)cn1 (2.5 µM)
inactive: [1] 0 | [2] 0 | [3] 0 | [4] 0 | [5] 0 | [6] 0 | [7] 0 | [8] 0 | [9] 0 | [10] 0

NC1(C(=O)NCCCn2cc(-c3ccc(OC(F)(F)F)cc3)c3cc(CN4CCN(Cc5c(Cl)cccc5Cl)CC4)ccc32)CCNCC1 (2.5 µM)
inactive: [1] 0 | [2] 0 | [3] 0 | [4] 0 | [5] 0 | [6] 0 | [7] 0 | [8] 0 | [9] 0 | [10] 0

Continued.

O=C(O)[C@H]1O[C@@H](Oc2cc3oc(-c4ccc(O)cc4)cc(=O)c3c(O)c2O)[C@H](O)[C@@H](O)[C@@H]1O [Scutellarin] (10 µM)
inactive: [1] 0 | [2] 0 | [3] 0 | [4] 0 | [5] 0 | [6] 0 | [7] 0 | [8] 0 | [9] 0 | [10] 0

O=C(O)c1cc(N(Cc2ccccc2O)Cc2cc(O)ccc2O)ccc1O [Lavendustin A] (10 µM)
inactive: [1] 0 | [2] 0 | [3] 0 | [4] 0 | [5] 0 | [6] 0 | [7] 0 | [8] 0 | [9] 0 | [10] 0

C=CC(=O)Nc1cc(Nc2nccc(-c3cn(C)c4ccccc34)n2)c(OC)cc1OCCN(C)C [Rezivertinib] (2.5 µM)
inactive: [1] 0 | [2] 0 | [3] 0 | [4] 0 | [5] 0 | [6] 0 | [7] 0 | [8] 0 | [9] 0 | [10] 0

COc1cc(N2CCOCC2)ccc1Nc1ncc(F)c(Nc2ccccc2NS(C)(=O)=O)n1 (10 µM)
inactive: [1] 0 | [2] 0 | [3] 0 | [4] 0 | [5] 0 | [6] 0 | [7] 0 | [8] 0 | [9] 0 | [10] 0

Cc1cc(O)c2c(c1)C(=O)c1cccc(O)c1C2=O [Chrysophanol] (2 µM)
inactive: [1] 0 | [2] 0 | [3] 0 | [4] 0 | [5] 0 | [6] 0 | [7] 0 | [8] 0 | [9] 0 | [10] 0

Cc1cccc(-c2[nH]ncc2-c2ccnc3ccccc23)n1 (10 µM)
inactive: [1] 0 | [2] 0 | [3] 0 | [4] 0 | [5] 0 | [6] 0 | [7] 0 | [8] 0 | [9] 0 | [10] 0

CC(C)=CCC/C(C)=C/CC/C(C)=C/C=C/C(C)=C/C(=O)O [Peretinoin] (10 µM)
inactive: [1] 0 | [2] 0 | [3] 0 | [4] 0 | [5] 0 | [6] 0 | [7] 0 | [8] 0 | [9] 0 | [10] 0

C=C1CCC[C@]2(C)C=C3OC(=O)C(C)=C3C[C@@H]12 [Atractylenolide I] (10 µM)
inactive: [1] 0 | [2] 0 | [3] 0 | [4] 0 | [5] 0 | [6] 0 | [7] 0 | [8] 0 | [9] 0 | [10] 0

C[C@@H]1O[C@@H](Oc2cc(O)c3c(=O)c(O[C@@H]4O[C@@H](C)[C@H](O)[C@@H](O)[C@H]4O)c(-c4ccc(O)cc4)oc3c2)[C@H](O)[C@H](O)[C@H]1O [Kaempferitrin] (10 µM)
inactive: [1] 0 | [2] 0 | [3] 0 | [4] 0 | [5] 0 | [6] 0 | [7] 0 | [8] 0 | [9] 0 | [10] 0

CC(C)n1ncnc1-c1cn2c(n1)-c1ccc(O[C@@H](C)C(N)=O)cc1OCC2 (10 µM)
inactive: [1] 0 | [2] 0 | [3] 0 | [4] 0 | [5] 0 | [6] 0 | [7] 0 | [8] 0 | [9] 0 | [10] 0

COc1ccc(S(=O)(=O)Nc2cc(-c3c(O)ccc4ccccc34)c(O)c3ccccc23)cc1 (10 µM)
inactive: [1] 0 | [2] 0 | [3] 0 | [4] 0 | [5] 0 | [6] 0 | [7] 0 | [8] 0 | [9] 0 | [10] 0
